Measurements published in PubChem BioAssay AID624415 (National Center for Advancing Translational Sciences (NCATS), 2012).
In all, about 390,000 compounds went through this assay and about 60 (0.02%) were called active. Inconclusive means that the source gave no clear call. Such entries were picked first, then a sample of the others. No stated cut-off is given here; in the data, active means activity change below about -50%; inconclusive means between about -30% and that limit; inactive means weaker than that.

Chains of the proteins cited; added tags and fusions are not shown.
UniProt Q9GZU1, whole entry, looked up: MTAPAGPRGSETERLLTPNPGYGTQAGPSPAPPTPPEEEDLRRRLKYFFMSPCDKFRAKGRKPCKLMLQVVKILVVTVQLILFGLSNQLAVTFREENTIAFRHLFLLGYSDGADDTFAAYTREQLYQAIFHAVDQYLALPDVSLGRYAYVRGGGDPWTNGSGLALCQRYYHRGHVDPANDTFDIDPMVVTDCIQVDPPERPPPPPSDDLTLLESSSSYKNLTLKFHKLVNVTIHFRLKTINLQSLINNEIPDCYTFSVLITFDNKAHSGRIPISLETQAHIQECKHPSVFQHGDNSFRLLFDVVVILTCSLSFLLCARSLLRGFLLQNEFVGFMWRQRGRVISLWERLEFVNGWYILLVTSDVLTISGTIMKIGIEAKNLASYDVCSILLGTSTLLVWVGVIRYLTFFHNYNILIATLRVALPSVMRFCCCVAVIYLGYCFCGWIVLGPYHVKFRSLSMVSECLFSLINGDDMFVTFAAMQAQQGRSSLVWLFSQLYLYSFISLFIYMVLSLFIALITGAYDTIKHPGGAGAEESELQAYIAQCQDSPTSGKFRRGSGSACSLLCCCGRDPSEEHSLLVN

Biological target: Mucolipin-1 (Homo sapiens) (UniProt Q9GZU1)
Assay: qHTS for Inhibitors of the Human Mucolipin Transient Receptor Potential 1 (TRPML1);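 further: stimulus is agonist 54-4 at its EC80 concentration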
Conditions: TRPML1-inducible cells, Ca2+ dye fluorescence, FDSS; active compounds read low; inhibition of EC80 agonist-evoked calcium signal
How it was run: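 Calcium fluorescence in TRPML1-DL cells induced overnight with Tet: a 110 s read after compound pin addition, then a 110 s antagonist read after challenge with 54-4 at 4 uM final (EC80).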
On the % scale 0 is the no-effect control and ±100 the full control effect.

SMILES	activity change, negative = inhibition
O=C(NNC(=O)c1ccccc1[N+](=O)[O-])c1ccccn1	inconclusive: -40%
N#Cc1c(NC2CCCCC2)nc(-c2ccco2)c2c1CCCC2	inconclusive: -31.2%
Nc1nc(SCC(=O)N2CCCC2)[nH]c(=O)c1-c1ccccc1	inactive: 11.4%
Cc1cccc(/C=C(\C#N)C(=O)Nc2ccccn2)c1	inconclusive: -35.1%
O=C(NC(c1ccccc1)c1ccc2ccccc2n1)C1CCN(Cc2ccc(Cl)c(Cl)c2)CC1 (configuration not stated)	inconclusive: -43.8%
N#CC1=C(S)N(c2ccccc2)C(c2ccc(-c3ccc(Cl)c(Cl)c3)o2)NC1=O (configuration not stated)	inactive: 2.51%
COc1ccc(-c2cc(C#N)nc(Cl)n2)cc1	inactive: -9.3%
CC(C)(C)n1ncc2c(=O)n(Cc3ccc(OC(F)(F)F)cc3)cnc21	inactive: 45.8%
COc1cccc(-c2cc(C(F)(F)F)nc(-n3ccc([N+](=O)[O-])n3)n2)c1	inconclusive: -31.3%
O=C(O)c1cccc(NC(=S)N/N=C/c2cccc(O)c2)c1	inactive: 3.6%
COCCNC(=O)Cn1ncc2c(C)n(Cc3ccc(C)cc3)c(C)c2c1=O	inactive: -6.96%
O=C(COc1cccc(Cl)c1)Nc1cc(S(=O)(=O)N2CCOCC2)ccc1N1CCOCC1	inconclusive: -41.9%
Cc1ccc(S(=O)(=O)N2C[C@H]3C(=O)C[C@@H](c4ccccc4)N(S(=O)(=O)c4ccccc4C)[C@H]3C[C@H]2c2ccccc2)cc1	inconclusive: -34.5%
Cc1cccc(NC(=O)N2CCC(CN3CCOCC3)CC2)c1C	inconclusive: -31.6%
Cc1c(C(=O)NC2=NCCS2)cccc1[N+](=O)[O-]	inconclusive: -39.5%
C[C@]12CCC(=O)C[C@@H]1CC[C@@H]1[C@@H]2CC[C@]2(C)[C@@H](C(=O)COC(=O)CCC(=O)O)CC[C@@H]12	inconclusive: -30.1%
COc1ccc(OC)c(NC(=O)CSC2=Nc3ccccc3C3=NC(CC(=O)NCc4ccco4)C(=O)N23)c1 (configuration not stated)	inactive: 39.1%
Cc1ccc(-c2nnc(SCCOc3ccccc3)o2)cc1	inconclusive: -31.4%
CCN(C(=O)c1cc2c(s1)-c1c(C)cccc1OC2)c1cc(C)ccc1C	inactive: 23.3%
Cc1c(F)cccc1NC(=O)CSCC(=O)Nc1ccccc1	active: -55.3%
COc1ccc(N(C(=O)C2COc3ccccc3O2)C(C(=O)NC2CCCCC2)c2ccccc2)cc1OC (configuration not stated)	inconclusive: -30.5%
Cc1ccc(-n2c(SCc3ccccc3F)nc3[nH]ncc3c2=O)cc1C	inconclusive: -31.2%

A different layout for part of the listing above:
SMILES,"activity change, negative = inhibition"
Cc1c(C(=O)NC2=NCCS2)cccc1[N+](=O)[O-],inconclusive: -39.5%
C[C@]12CCC(=O)C[C@@H]1CC[C@@H]1[C@@H]2CC[C@]2(C)[C@@H](C(=O)COC(=O)CCC(=O)O)CC[C@@H]12,inconclusive: -30.1%
COc1ccc(OC)c(NC(=O)CSC2=Nc3ccccc3C3=NC(CC(=O)NCc4ccco4)C(=O)N23)c1 (configuration not stated),inactive: 39.1%
Cc1ccc(-c2nnc(SCCOc3ccccc3)o2)cc1,inconclusive: -31.4%

(listing goes on)

SMILES	activity change, negative = inhibition
COc1cc(CNC(=O)CCCC(=O)c2ccccc2)cc(OC)c1OC	inactive: -18.5%
CCN1CCN(CC(O)COC(c2ccccc2)c2ccccc2C)CC1 (configuration not stated)	inconclusive: -34.3%
CCC(C)(C)NC(=O)Cn1c(=O)oc2cc(S(=O)(=O)N3CC(C)CC(C)C3)ccc21 (configuration not stated)	inconclusive: -30.1%
CC1CCN(C(=O)CSc2nc3c(c(=O)n2C)SCC3)CC1	inconclusive: -43.4%
CCCC(O)(c1ccccc1)C(CN1CCOCC1)c1ccccc1 (configuration not stated)	inactive: -0.618%
O=C(NCc1ccncc1)/C(=C\c1ccc(F)cc1)NC(=O)c1ccccc1	inactive: 20.1%
COc1ccc(-n2c(SC3CCOC3=O)nc3ccccc3c2=O)cc1OC (configuration not stated)	inactive: -11.3%
COc1cccc(/C=N/NC(=O)CSc2ccccc2C)c1OC	inconclusive: -32.8%
Cc1cc(S(=O)(=O)N2CCCOC2CNC(=O)C(=O)NCc2ccco2)ccc1F (configuration not stated)	inconclusive: -31.2%
COc1ccccc1CCC(=O)N1CCN(S(=O)(=O)c2cccc(F)c2)CC1	inactive: -4.52%
COc1nccnc1NS(=O)(=O)c1ccc(NC(=S)NC(=O)c2ccc(F)cc2)cc1	inconclusive: -33.3%
Cc1cccc(C)c1NC(=S)NC(C)CCc1ccccc1 (configuration not stated)	inactive: 13.7%
COc1ccccc1OCC(=O)Nc1nc2c(s1)CC(C)CC2 (configuration not stated)	inconclusive: -31.2%
Cc1occc1C(=O)N/N=C/c1sc(N2CCOCC2)nc1-c1ccccc1	inconclusive: -33%
Cc1ccc2c(C)c(C)c(=O)n(C)c2c1	inconclusive: -34.2%
COc1ccc(-n2c(-c3ccccc3)nc(=S)c3c2CCCC3)cc1	inconclusive: -39.8%
Cc1ccc(NC(=O)N(CCCN2CCOCC2)Cc2cccs2)cc1C	inconclusive: -37.2%
CC(C)N1CCc2c(sc(NC(=O)c3ccc(S(=O)(=O)N(C)C4CCCCC4)cc3)c2C(N)=O)C1	inactive: -17.2%
CCN1CCC(O)(C#Cc2ccccc2)CC1	inactive: -1.43%
CC1(C)CNC(=O)C=C(c2ccccc2)C1	inconclusive: -33.5%
CCOC(=O)CNC(=O)CC(c1cc(OC)c(OC)c(OC)c1)N1Cc2ccccc2C1=O (configuration not stated)	inconclusive: -30.4%
Cc1ccc(CNC(=O)c2sc3ncnc(N(C)C4CCCCC4)c3c2C)cc1	inconclusive: -50%

SMILES	activity change, negative = inhibition
O=S(=O)(NCC(c1ccco1)N1CCOCC1)c1ccc(Cl)cc1 (configuration not stated)	inconclusive: -39.1%
c1ccc(C2CC(c3ccccc3)C(c3ccccc3)N2)cc1 (configuration not stated)	inconclusive: -35.9%
CCOc1ccc(Oc2nc(C)cc(OC)n2)nn1	inconclusive: -34.5%
CC(=O)c1ccc(NC(=O)CNC2CCCCC2)cc1	inconclusive: -33.9%
COCC(N)(c1ccccc1)c1nc2ccccc2n1C (configuration not stated)	inactive: -4%
Cc1cc(C)n(-c2nc(SCCN(C)C)c3c4c(sc3n2)COC(C)(C)C4)n1	inactive: 1.93%
CC(C)c1ccc(NC2CCCN(C(=O)c3cscn3)C2)cc1 (configuration not stated)	inconclusive: -33.7%
COCCn1c(N)c(C(=O)NCC2CCCO2)c2nc3ccccc3nc21 (configuration not stated)	inactive: -3.13%
Cc1ccccc1C(=O)N1N=C(c2ccc(NS(C)(=O)=O)cc2)CC1c1cccs1 (configuration not stated)	inactive: 3.36%
Cc1sc2ncn(CC(=O)NCc3ccccc3)c(=O)c2c1C	inconclusive: -30.6%
O=C(CSc1ccccn1)Nc1nonc1[N+](=O)[O-]	inactive: -19.7%
CC(C)c1ccc(NC(=O)Cn2c(=O)oc3cc(S(=O)(=O)N4CCCC4)ccc32)cc1	inconclusive: -45.3%
O=C(NC1CC(=O)N(c2ccccc2)C1)c1ccc(S(=O)(=O)N2CCCC2)cc1 (configuration not stated)	inconclusive: -36.8%
Cc1cc(N2CCN(c3nc(-c4ccc([N+](=O)[O-])cc4)cs3)CC2)c2ccccc2n1	inactive: 5.68%
CCn1c(SCC(=O)Nc2nc(-c3ccc(C)cc3)cs2)nnc1-c1ccccc1O	inconclusive: -37.7%
CC(C)Cc1nn2c(=O)cc(COC(=O)c3ccccc3NC(=O)c3ccccc3)nc2s1	active: -55.6%
O=C(NCCc1ccccc1)c1ccccc1SCC(=O)N1CCCC1	inconclusive: -32.9%
CCN1CCN(c2nc(C)c3c(n2)CC(C)CC3=O)CC1 (configuration not stated)	inconclusive: -34%
CCc1cccc(NC(=O)CCS(=O)(=O)c2ccc(C)cc2)c1	inconclusive: -31.1%
O=S(=O)(Nc1nc2n(n1)C(c1ccccc1)C=C(c1ccc(Cl)cc1)N2)c1ccccc1 (configuration not stated)	inactive: -5.91%
CC(=O)c1cccc(OCCCOc2cccc3cccnc23)c1	inactive: 20.4%
CCOC(=O)c1c(C)oc2nc(C)nc(NCCCN3CCN(c4cccc(C)c4)C(C)C3)c12 (configuration not stated)	inconclusive: -34.3%

SMILES	activity change, negative = inhibition
Cc1ccc(C(=O)NC(=C(Cl)Cl)S(=O)(=O)c2ccc(Cl)cc2)cc1	inconclusive: -33%
COc1ccc(CCNC(=O)C(=O)NCC(c2cccs2)S(=O)(=O)c2ccccc2)cc1 (configuration not stated)	inactive: 61.7%
Fc1ccc(CNc2cnccn2)cc1	inconclusive: -33.4%
O=C(CSc1ccc(Cl)cc1)c1ccco1	inactive: -1.1%
O=C(Nc1ccc(Br)cc1)c1cc2ccccn2n1	inactive: -0.666%
COc1cc(/C=N/n2c(C3CCCCC3)n[nH]c2=S)cc(OC)c1O	inconclusive: -30%
CCCCCCc1c(C)c2c(cc(C)c3c(C)c(C)oc32)oc1=O	inconclusive: -40.6%
CCOC(=O)Nc1cccc(NC(=O)c2cc(OC)cc(OC)c2)c1	inconclusive: -32.4%
O=c1[nH]nc(SCc2nnc(-c3ccc([N+](=O)[O-])cc3)o2)n1C1CCCCC1	inconclusive: -31%
Cc1nc2sccn2c(=O)c1CCN1CCC(=C(c2ccc(F)cc2)c2ccc(F)cc2)CC1	inactive: 18.1%
CC(C)(C)OC(=O)N1CCC(c2c(C(=O)NCCCN3CCc4ccccc4C3)cnn2-c2ccccc2)CC1	inconclusive: -30.2%
NS(=O)(=O)c1ccc(CCNC(=O)C(=O)c2cn(CC(=O)N3CCOCC3)c3ccccc23)cc1	inactive: -12%
COc1cccc(CNC(=O)c2ccc(CS(=O)(=O)Cc3ccc(C)cc3)o2)c1	inconclusive: -35.2%
O=C1CCCN1CCC1CCN(C(=O)Nc2ccccc2)CC1	inconclusive: -34.6%
CN(CC(=O)OCC(=O)NCc1ccccc1)S(=O)(=O)c1ccc(F)cc1	inconclusive: -35.9%
S=c1[nH]c(-c2ccccc2)cn1/N=C/c1cccs1	inactive: -8.34%
Cc1cccc(NC(=O)N2CC=C(c3c[nH]c4ccccc34)CC2)c1C	inactive: -7.38%
c1ccc2[nH]c(NN=C3CCCCCC3)nc2c1	inactive: 11.1%
CCOC(=O)Cc1ccc2sc(-c3ccccc3)nc2c1	inconclusive: -34%
Cc1ccc(NC(=O)c2c(C)oc3ncn(CC(C)C)c(=O)c23)nc1	inconclusive: -32.2%
COc1ccc(CN2C(=O)CS/C2=N/N=C/c2ccccc2)cc1	inconclusive: -32.3%
